Assay results published in PubChem BioAssay AID2417 (National Center for Advancing Translational Sciences (NCATS), 2010).
Out of some 140,000 compounds screened, about 4,300 (3.1%) were called active. Inconclusive results, whose numbers are uncertain, are shown with a selection of clear calls.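 The calls were made as follows: active = readout at or below -70, meaning at least 70% loss of cells showing the perinucleolar compartment, a nuclear body marking cancer cells; inconclusive = readout between -30 and a set limit; inactive = the rest.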

Experiment: High Content Assay for Compounds that inhibit the Assembly of the Perinucleolar Compartment;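 also: plate controls were DMSO wells for no effect and camptothecin positive control wells for full effect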
Details: PC3M PTB-GFP, PNC prevalence imaging, 16 h; at 10 µM; hits give low values
In short: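 Read-out is percentage of cells bearing a perinucleolar compartment, from automated 20x imaging of fixed, Hoechst-stained PC3M PTB-GFP cells. Cells were seeded 4 h, then exposed 16 h to compound (23 nl of library stock) in duplicate plates.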
In the case of `COc1ccc(-n2c(SC(C)C(=O)Nc3ncc(Cl)cc3Cl)nc3ccccc32)cc1` (centres undefined), the activity change (PNC), negative = inhibition is reported as active: -111%.
In the case of `COc1cc(/C=N/N=C2/C(=O)Nc3ccccc32)cc(OC)c1O`, the activity change (PNC), negative = inhibition is reported as inactive: 9.91%.
For `O=C(CN1CCC(O)(c2ccc3c(c2)OCO3)CC1)OC1CCCCC1`, the activity change (PNC), negative = inhibition was active: -84.3%.
In the case of `CSc1ccccc1-c1nnc(-c2ccc(Cl)c(Cl)c2)o1`, the activity change (PNC), negative = inhibition is reported as inconclusive: -45.2%.
In the case of `CCCCCCNS(=O)(=O)c1ccc(OC)c(OC)c1`, the activity change (PNC), negative = inhibition is reported as inconclusive: -32.2%.
For `CCN(CC)CC(=O)N1c2ccccc2Sc2ccc(Cl)cc21`, the activity change (PNC), negative = inhibition was active: -100%.
With `COc1ccc(C(=O)N2CCN(c3nnnn3-c3ccccc3)CC2)cc1OC` the activity change (PNC), negative = inhibition was inactive: 10.8%.
With `COCCn1nnnc1C(c1ccccn1)N1CCN(c2cccc(C)c2C)CC1` (centres undefined) the activity change (PNC), negative = inhibition was inconclusive: -35.2%.
For `CC1(C)CC(=O)C2=C(C1)N=C1SCCC(=O)N1C2c1ccccc1` (centres undefined), the activity change (PNC), negative = inhibition was inconclusive: -34.2%.
In the case of `COc1ccc(C(=O)Nc2cccc(C(C)=O)c2)c(OC)c1OC`, the activity change (PNC), negative = inhibition is reported as inactive: 43.4%.
In the case of `Cc1cc(C)n(S(=O)(=O)/C=C/c2ccccc2)n1`, the activity change (PNC), negative = inhibition is reported as inconclusive: -45.6%.
With `CC(=O)C1=C(O)CC(c2ccccc2)CC1=NCCc1c(C)[nH]c2ccc(C)cc12` (centres undefined) the activity change (PNC), negative = inhibition was active: -119%.
For `COc1ccc(CCn2c(N)cc(=O)[nH]c2=S)cc1OC`, the activity change (PNC), negative = inhibition was inconclusive: -54.7%.
With `Nc1cc(N)nc(SCC(=O)Nc2ccc3c(c2)OCCCO3)n1` the activity change (PNC), negative = inhibition was inconclusive: -56.9%.
With `CCC1CCCCN1Cc1nc2c(c(=O)n(C)c(=O)n2C)n1CCC(C)C` (centres undefined) the activity change (PNC), negative = inhibition was inactive: -17.7%.
In the case of `Clc1ccc(-c2cn3cccnc3n2)cc1Cl`, the activity change (PNC), negative = inhibition is reported as inactive: -29%.
For `O=C(Nc1nnc(SCC(=O)N2CCCc3ccccc32)s1)c1cccc2ccccc12`, the activity change (PNC), negative = inhibition was inconclusive: -72.9%.
In the case of `CC(=O)c1c(C)n(CC(=O)NCc2ccc3c(c2)OCO3)c2ccccc12`, the activity change (PNC), negative = inhibition is reported as inconclusive: -47.4%.
For `O=C(CN1CCOCC1)OCCCC1CCCCC1`, the activity change (PNC), negative = inhibition was inactive: 84%.
In the case of `CC(C)NC(=O)c1ccc2c(=O)n(C3CCCC3)c(=S)[nH]c2c1`, the activity change (PNC), negative = inhibition is reported as inconclusive: -41.1%.
In the case of `Cc1ccc(NC(=O)CN2CCN(c3ccccn3)CC2)c(Cl)c1`, the activity change (PNC), negative = inhibition is reported as inconclusive: -41.8%.
In the case of `Cc1nc2c(-c3ccc(F)cc3)c(C)nn2c(C)c1CCC(=O)N1CCC(Cc2ccccc2)CC1`, the activity change (PNC), negative = inhibition is reported as inconclusive: -54.7%.
In the case of `CCN1C(=O)C(CC(=O)NCc2ccc(Cl)cc2)N(CC)C1=O` (centres undefined), the activity change (PNC), negative = inhibition is reported as inconclusive: -37.5%.
For `Cn1c(=O)c2c3c(sc2n2c(SCC(=O)c4ccccc4)nnc12)COC(C)(C)C3`, the activity change (PNC), negative = inhibition was inconclusive: -56.9%.
With `O=C(NCCCN1CCCCC1)c1ccc2c(c1)NC(=O)C(N1CCOCC1)S2` (centres undefined) the activity change (PNC), negative = inhibition was inconclusive: -36.6%.
With `CC(C)(C)N1C(=O)c2ccc(C(=O)Nc3nccs3)cc2C1=O` the activity change (PNC), negative = inhibition was inactive: 33.4%.
For `CC1=NCC(C)c2c1[nH]c1ccccc21` (centres undefined), the activity change (PNC), negative = inhibition was inactive: 86.2%.
In the case of `CCCc1nc2c(C)cc(C)cc2c(N)c1CC`, the activity change (PNC), negative = inhibition is reported as inconclusive: -54.6%.
With `O=[n+]1c2c(n([O-])c3cc(Br)ccc31)CCCC2` the activity change (PNC), negative = inhibition was inactive: -27.4%.
In the case of `COC(=O)/C(=C1/Oc2ccc(C)cc2S1)C(F)(F)F`, the activity change (PNC), negative = inhibition is reported as inconclusive: -51.8%.
In the case of `CCn1cc(CNC(=O)c2cc(-c3ccccc3OC)nc3ccccc23)c(C)n1`, the activity change (PNC), negative = inhibition is reported as inconclusive: -44.2%.
In the case of `COc1ccccc1C1CC(c2cccs2)=Nc2ccccc2S1` (centres undefined), the activity change (PNC), negative = inhibition is reported as inactive: 13.2%.
For `Cc1ccc2cc(C(c3nnnn3Cc3ccccc3)N3CCc4ccccc43)c(=O)[nH]c2c1C` (centres undefined), the activity change (PNC), negative = inhibition was inactive: 6.69%.
With `CCSc1nc(O)cc(=O)n1-c1ccc(OC)cc1` the activity change (PNC), negative = inhibition was inconclusive: -49.6%.
For `CCn1cc(CNC(=O)c2cccc([N+](=O)[O-])c2)c(C)n1`, the activity change (PNC), negative = inhibition was inconclusive: -54.9%.
For `Cc1cccc(C)c1NC(=O)CSc1ncnc2nc[nH]c12`, the activity change (PNC), negative = inhibition was inconclusive: -48.2%.
With `O=C(NCc1ccco1)c1noc2c1CCCC2` the activity change (PNC), negative = inhibition was inconclusive: -30.5%.
In the case of `O=C(C1CC1)N1CCN(c2nc3ccccc3s2)CC1`, the activity change (PNC), negative = inhibition is reported as inconclusive: -60.9%.
For `O=C(NCC1COc2ccccc2O1)C1CCCN(S(=O)(=O)c2cnc[nH]2)C1` (centres undefined), the activity change (PNC), negative = inhibition was active: -92.8%.
With `CC1CCc2sc(C(=O)N=Nc3c(O)[nH]c4ccccc34)cc2C1` (centres undefined) the activity change (PNC), negative = inhibition was inactive: -17.8%.
For `CCC(=O)c1ccc(O)cc1`, the activity change (PNC), negative = inhibition was inactive: 20.1%.
In the case of `CCCCCOC(=O)CSc1nc2c(c(=O)[nH]c(=O)n2C)n1CCc1ccccc1`, the activity change (PNC), negative = inhibition is reported as inactive: 12.5%.
For `CCOC(=O)C1=C(C)NC2=C(C(=O)CCC2)C1c1cccnc1` (centres undefined), the activity change (PNC), negative = inhibition was inconclusive: -34%.
In the case of `OC(COCc1ccc(Cl)cc1)CN1CCc2ccccc2C1` (centres undefined), the activity change (PNC), negative = inhibition is reported as inactive: 11.3%.
For `O=C(Nc1ccc(-c2noc(CCc3ccccc3)n2)cc1)c1cccnc1`, the activity change (PNC), negative = inhibition was inconclusive: -50.3%.
For `COc1ccc(OCCC(=O)OCC(=O)NCc2ccccc2)cc1`, the activity change (PNC), negative = inhibition was inactive: 76.2%.
With `COc1ccc(Cl)cc1NC(=O)CSc1ncnc2c1oc1ccccc12` the activity change (PNC), negative = inhibition was inactive: 39.9%.
With `Cc1cc2c(c(=O)o1)C1(C(=O)N(CC(=O)O)c3ccccc31)C(C#N)=C(N)O2` (centres undefined) the activity change (PNC), negative = inhibition was inactive: -6.79%.
With `COc1cc(C(=O)NCc2ccco2)cc(OC)c1OC` the activity change (PNC), negative = inhibition was inconclusive: -38%.
For `COc1cc(Cl)c(C)cc1NC(C)C(=O)Nc1cc(C(F)(F)F)ccc1N1CCOCC1` (centres undefined), the activity change (PNC), negative = inhibition was inconclusive: -30.9%.
With `O=C(c1ccc(CNS(=O)(=O)c2cccc(C(F)(F)F)c2)cc1)N1CCOCC1` the activity change (PNC), negative = inhibition was inactive: 23%.
In the case of `O=C(CCCC(=O)Nc1cccnc1)Nc1cccnc1`, the activity change (PNC), negative = inhibition is reported as inconclusive: -39.4%.
In the case of `O=C(N/N=C/c1cc([N+](=O)[O-])ccc1O)/C(=C\c1cccs1)NC(=O)c1ccccc1`, the activity change (PNC), negative = inhibition is reported as inactive: 25.3%.
With `O=S(=O)(N/N=C1/CCCc2ccccc21)c1ccc(Br)cc1` the activity change (PNC), negative = inhibition was inactive: 51.8%.
In the case of `O=C(c1ccccc1)N1CCN=C1SCc1ccc([N+](=O)[O-])cc1`, the activity change (PNC), negative = inhibition is reported as inconclusive: -35.6%.
In the case of `O=C(/C=C/c1ccccc1)N(c1ccccn1)C1CCCCC1`, the activity change (PNC), negative = inhibition is reported as inconclusive: -61.4%.
For `CCC(=O)N1CCc2cc(S(=O)(=O)CCC(=O)Nc3ccc(CC)cc3)ccc21`, the activity change (PNC), negative = inhibition was inconclusive: -62%.
For `Cc1ccc(-c2cc(-c3ccc4c(c3)OCO4)c(C#N)c(N)n2)o1`, the activity change (PNC), negative = inhibition was inactive: -5.03%.
In the case of `CC(=O)NC1C(OCc2ccccc2)OC(CO)C(OC(C)=O)C1OC(C)=O` (centres undefined), the activity change (PNC), negative = inhibition is reported as inconclusive: -61.6%.
